Measurements from PubChem BioAssay AID328 (DTP/NCI, 2004).
The list does not hold the whole screen: its compounds were picked by chemical class. Not every dose and run of a compound is shown. T/C: endpoint of the treated group in % of that of the vehicle group. Where survival is the endpoint, the PubChem record calls one and a half times the control and up active, and a quarter to a half above the control has no call in these data; cut-offs in other NCI protocols can differ. Some T/C values are marked as having no survivor count here; that says nothing about deaths at the dose. Schedule codes are those of the source, read here as Q, the interval in days (D) or hours (H), X, the number of doses. Some doses were run more than once; their values stand side by side, smallest first.

System: BDF1 mice, P388 leukemia ip, median survival T/C
Assay: NCI In Vivo Anticancer Drug Screen. Data for tumor model P388 Leukemia (intraperitoneal) in B6D2F1 (BDF1) mice
Settings: T/C endpoint: median survival time, higher T/C = longer survival
Procedure: The antitumor activity of compounds was measured in mice bearing transplantable tumors. Survival or tumor size were measured and the results are expressed as the measurement made in the treated group (T) divided by the measurement made in the vehicle treated control group (C). The tumor model used in this assay is P388 Leukemia (intraperitoneal) in B6D2F1 (BDF1) mice

[1] = dose: 12.5 mg/kg/injection, schedule: Q01DX009 (ip), vehicle: saline with Tween-80
[2] = dose: 25.0 mg/kg/injection, schedule: Q01DX009 (ip), vehicle: saline with Tween-80

Q: How did the T/C (dose: 6.25 mg/kg/injection, schedule: Q04DX003 (ip), vehicle: Klucel (hydroxypropylcellulose) (HPC)) turn out when ClCCN(CCCl)c1ccccc1 was run?
A: 140 % of control [survivor count not shown]

Q: What about the T/C [1] of the same molecule?
A: 168 % of control [survivor count not shown]

Q: What about the T/C (dose: 12.5 mg/kg/injection, schedule: Q04DX003 (ip), vehicle: Klucel (hydroxypropylcellulose) (HPC)) of the same molecule?
A: 135 % of control [survivor count not shown]

Q: What about the T/C (dose: 16.0 mg/kg/injection, schedule: Q01DX010 (ip), vehicle: saline) of the same molecule?
A: 91 % of control [survivor count not shown]

Q: What about the T/C [2] of the same molecule?
A: 168 % of control [survivor count not shown]

Q: What about the T/C (dose: 25.0 mg/kg/injection, schedule: Q04DX003 (ip), vehicle: Klucel (hydroxypropylcellulose) (HPC)) of the same molecule?
A: 140 % of control [survivor count not shown]

Q: What about the T/C (dose: 32.0 mg/kg/injection, schedule: Q01DX010 (ip), vehicle: saline) of the same molecule?
A: 100 % of control [survivor count not shown]

Q: What about the T/C (dose: 50.0 mg/kg/injection, schedule: Q04DX003 (ip), vehicle: Klucel (hydroxypropylcellulose) (HPC)) of the same molecule?
A: 210 % of control [survivor count not shown]

Q: And the T/C (dose: 64.0 mg/kg/injection, schedule: Q01DX010 (ip), vehicle: saline)?
A: 108 % of control [survivor count not shown]

Q: And the T/C (dose: 100.0 mg/kg/injection, schedule: Q04DX003 (ip), vehicle: Klucel (hydroxypropylcellulose) (HPC))?
A: 180 % of control [survivor count not shown]

Q: What does the source list for CC(C(=O)O)N(CCCl)CCCl (stereo not given)?
A: T/C (dose: 0.5 mg/kg/injection, schedule: Q01DX010 (ip), vehicle: saline): 180 [survivor count not shown] and 215 % of control [survivor count not shown]; T/C (dose: 1.0 mg/kg/injection, schedule: Q01DX010 (ip), vehicle: saline): 195 [survivor count not shown] and 215 % of control [survivor count not shown]; T/C (dose: 2.0 mg/kg/injection, schedule: Q01DX010 (ip), vehicle: saline): 230 [survivor count not shown] and 235 % of control [survivor count not shown]; T/C (dose: 4.0 mg/kg/injection, schedule: Q01DX010 (ip), vehicle: saline): 230 [survivor count not shown] and 255 % of control [survivor count not shown]

Q: How did the T/C (dose: 6.25 mg/kg/injection, schedule: Q01DX009 (ip), vehicle: water) turn out when Oc1cc(O)cc(N(CCCl)CCCl)c1 was run?
A: 126 % of control [survivor count not shown]

Q: What about the T/C [1] of the same molecule?
A: 158 % of control [survivor count not shown]

Q: And the T/C (dose: 12.5 mg/kg/injection, schedule: Q01DX009 (ip), vehicle: water)?
A: 150 % of control [survivor count not shown]

Q: And the T/C (dose: 12.5 mg/kg/injection, schedule: Q04DX003 (ip), vehicle: water)?
A: 112 % of control [survivor count not shown]

Q: And the T/C [2]?
A: 171 % of control [survivor count not shown]

Q: And the T/C (dose: 25.0 mg/kg/injection, schedule: Q01DX009 (ip), vehicle: water)?
A: 160 % of control [survivor count not shown]

Q: And the T/C (dose: 25.0 mg/kg/injection, schedule: Q04DX003 (ip), vehicle: water)?
A: 128 [survivor count not shown] and 133 % of control [survivor count not shown]

Q: And the T/C (dose: 50.0 mg/kg/injection, schedule: Q01DX009 (ip), vehicle: saline with Tween-80)?
A: 200 % of control [survivor count not shown]

Q: And the T/C (dose: 50.0 mg/kg/injection, schedule: Q01DX009 (ip), vehicle: water)?
A: 188 % of control [survivor count not shown]

Q: What about the T/C (dose: 50.0 mg/kg/injection, schedule: Q04DX003 (ip), vehicle: water) of the same molecule?
A: 135 [survivor count not shown] and 154 % of control [survivor count not shown]

Q: What about the T/C (dose: 100.0 mg/kg/injection, schedule: Q01DX009 (ip), vehicle: saline with Tween-80) of the same molecule?
A: 89 % of control [survivor count not shown]

Q: And the T/C (dose: 100.0 mg/kg/injection, schedule: Q01DX009 (ip), vehicle: water)?
A: 191 % of control [survivor count not shown]

Q: And the T/C (dose: 100.0 mg/kg/injection, schedule: Q04DX003 (ip), vehicle: water)?
A: 146 [survivor count not shown] and 163 % of control [survivor count not shown]

Q: What about the T/C (dose: 200.0 mg/kg/injection, schedule: Q04DX003 (ip), vehicle: water) of the same molecule?
A: 155 [survivor count not shown] and 200 % of control [survivor count not shown]

Q: How did the T/C (dose: 0.25 mg/kg/injection, schedule: Q04DX003 (ip), vehicle: saline) turn out when C[N+](CCCl)(CCCl)Cc1ccc([N+](=O)[O-])cc1 was run?
A: 95 % of control [survivor count not shown]

Q: What about the T/C (dose: 0.5 mg/kg/injection, schedule: Q04DX003 (ip), vehicle: saline) of the same molecule?
A: 105 % of control [survivor count not shown]

Q: What about the T/C (dose: 1.0 mg/kg/injection, schedule: Q04DX003 (ip), vehicle: saline) of the same molecule?
A: 110 % of control [survivor count not shown]

Q: And the T/C (dose: 3.13 mg/kg/injection, schedule: Q04DX003 (ip), vehicle: saline with Tween-80)?
A: 109 % of control [survivor count not shown]

Q: And the T/C (dose: 6.25 mg/kg/injection, schedule: Q04DX003 (ip), vehicle: saline with Tween-80)?
A: 113 % of control [survivor count not shown]

Q: And the T/C (dose: 12.5 mg/kg/injection, schedule: Q04DX003 (ip), vehicle: saline with Tween-80)?
A: 145 % of control [survivor count not shown]

Q: What about the T/C (dose: 100.0 mg/kg/injection, schedule: Q04DX003 (ip), vehicle: saline with Tween-80) of the same molecule?
A: 136 % of control [survivor count not shown]

Q: What does the source list for COC1OC(CN(CCCl)CCCl)C2OC(C)(C)OC12 (stereo not given)?
A: T/C (dose: 0.05 mg/kg/injection, schedule: Q01DX009 (ip), vehicle: saline): 100 % of control [survivor count not shown]; T/C (dose: 0.07 mg/kg/injection, schedule: Q01DX009 (ip), vehicle: saline): 105 % of control [survivor count not shown]; T/C (dose: 0.29 mg/kg/injection, schedule: Q01DX009 (ip), vehicle: saline): 154 % of control [survivor count not shown]; T/C (dose: 0.44 mg/kg/injection, schedule: Q01DX009 (ip), vehicle: saline): 150 % of control [survivor count not shown]; T/C (dose: 0.68 mg/kg/injection, schedule: Q01DX009 (ip), vehicle: saline): 241 % of control [survivor count not shown]; T/C (dose: 1.0 mg/kg/injection, schedule: Q01DX009 (ip), vehicle: saline): 241 % of control [survivor count not shown]; T/C (dose: 1.56 mg/kg/injection, schedule: Q01DX009 (ip), vehicle: saline): 204 % of control [survivor count not shown]; T/C (dose: 3.12 mg/kg/injection, schedule: Q01DX009 (ip), vehicle: saline): 227 % of control [survivor count not shown]

Q: Which T/C (dose: 0.74 mg/kg/injection, schedule: Q12HX018 (ip), vehicle: Klucel (hydroxypropylcellulose) (HPC)) does the source give for O=CCCCc1ccc(N(CCCl)CCCl)cc1 here?
A: 105 % of control [survivor count not shown]

Q: And the T/C (dose: 1.1 mg/kg/injection, schedule: Q12HX018 (ip), vehicle: Klucel (hydroxypropylcellulose) (HPC))?
A: 115 % of control [survivor count not shown]

Q: What about the T/C (dose: 1.7 mg/kg/injection, schedule: Q12HX018 (ip), vehicle: Klucel (hydroxypropylcellulose) (HPC)) of the same molecule?
A: 127 % of control [survivor count not shown]

Q: What about the T/C (dose: 2.5 mg/kg/injection, schedule: Q12HX018 (ip), vehicle: Klucel (hydroxypropylcellulose) (HPC)) of the same molecule?
A: 113 % of control [survivor count not shown]

Q: What about the T/C (dose: 3.9 mg/kg/injection, schedule: Q12HX018 (ip), vehicle: Klucel (hydroxypropylcellulose) (HPC)) of the same molecule?
A: 183 % of control [survivor count not shown]

Q: What about the T/C (dose: 6.0 mg/kg/injection, schedule: Q12HX018 (ip), vehicle: Klucel (hydroxypropylcellulose) (HPC)) of the same molecule?
A: 177 % of control [survivor count not shown]

Q: What about the T/C (dose: 9.0 mg/kg/injection, schedule: Q12HX018 (ip), vehicle: Klucel (hydroxypropylcellulose) (HPC)) of the same molecule?
A: 233 % of control [survivor count not shown]
